Measurements as given in article PMC4976202.
Results are given in words; binding and its absence hold for the method and conditions named. Binding seen in cells or lysates may run through a third protein.

Amino acid sequences for entries named in this document (tags omitted).
UniProt P14618: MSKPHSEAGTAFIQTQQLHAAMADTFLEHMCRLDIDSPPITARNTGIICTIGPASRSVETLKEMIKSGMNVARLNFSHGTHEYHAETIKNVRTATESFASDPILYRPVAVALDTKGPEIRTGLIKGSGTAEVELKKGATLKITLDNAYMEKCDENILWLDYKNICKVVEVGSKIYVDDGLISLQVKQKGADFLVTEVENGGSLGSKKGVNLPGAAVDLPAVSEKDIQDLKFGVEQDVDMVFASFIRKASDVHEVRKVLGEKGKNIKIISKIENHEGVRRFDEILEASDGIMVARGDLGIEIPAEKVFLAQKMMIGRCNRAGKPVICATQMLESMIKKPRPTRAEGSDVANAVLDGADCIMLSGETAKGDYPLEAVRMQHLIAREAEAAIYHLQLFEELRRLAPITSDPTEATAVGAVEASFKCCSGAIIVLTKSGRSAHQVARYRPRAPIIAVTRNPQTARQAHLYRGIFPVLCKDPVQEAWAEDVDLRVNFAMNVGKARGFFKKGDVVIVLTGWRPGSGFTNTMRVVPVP
UniProt P62136: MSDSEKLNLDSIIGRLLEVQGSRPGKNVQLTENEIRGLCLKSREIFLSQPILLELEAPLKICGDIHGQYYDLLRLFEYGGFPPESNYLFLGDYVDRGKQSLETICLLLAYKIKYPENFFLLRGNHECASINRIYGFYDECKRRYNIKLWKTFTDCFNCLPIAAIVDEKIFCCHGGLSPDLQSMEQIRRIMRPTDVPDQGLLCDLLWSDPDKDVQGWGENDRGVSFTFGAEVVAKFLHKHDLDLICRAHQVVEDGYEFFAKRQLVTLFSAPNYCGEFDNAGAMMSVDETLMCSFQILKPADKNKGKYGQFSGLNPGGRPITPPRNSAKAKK

B1: Cdc25C (enzyme, UniProt P30307 1-473)
chain: MSTELFSSTREEGSSGSGPSFRSNQRKMLNLLLERDTSFTVCPDVPRTPVGKFLGDSANLSILSGGTPKRCLDLSNLSSGEITATQLTTSADLDETGHLDSSGLQEVHLAGMNHDQHLMKCSPAQLLCSTPNGLDRGHRKRDAMCSSSANKENDNGNLVDSEMKYLGSPITTVPKLDKNPNLGEDQAEEISDELMEFSLKDQEAKVSRSGLYRSPSMPENLNRPRLKQVEKFKDNTIPDKVKKKYFSGQGKLRKGLCLKKTVSLCDITITQMLEEDSNQGHLIGDFSKVCALPTVSGKHQDLKYVNPETVAALLSGKFQGLIEKFYVIDCRYPYEYLGGHIQGALNLYSQEELFNFFLKKPIVPLDTQKRIIIVFHCEFSSERGPRMCRCLREEDRSLNQYPALYYPELYILKGGYRDFFPEYMELCEPQSYCPMHHQDHKTELLRCRSQSKVQEGERQLREQIALLVKDMSP
B2: Cdc25B (enzyme, UniProt P30305 1-580)
chain: MEVPQPEPAPGSALSPAGVCGGAQRPGHLPGLLLGSHGLLGSPVRAAASSPVTTLTQTMHDLAGLGSETPKSQVGTLLFRSRSRLTHLSLSRRASESSLSSESSESSDAGLCMDSPSPMDPHMAEQTFEQAIQAASRIIRNEQFAIRRFQSMPVRLLGHSPVLRNITNSQAPDGRRKSEAGSGAASSSGEDKENDGFVFKMPWKPTHPSSTHALAEWASRREAFAQRPSSAPDLMCLSPDRKMEVEELSPLALGRFSLTPAEGDTEEDDGFVDILESDLKDDDAVPPGMESLISAPLVKTLEKEEEKDLVMYSKCQRLFRSPSMPCSVIRPILKRLERPQDRDTPVQNKRRRSVTPPEEQQEAEEPKARVLRSKSLCHDEIENLLDSDHRELIGDYSKAFLLQTVDGKHQDLKYISPETMVALLTGKFSNIVDKFVIVDCRYPYEYEGGHIKTAVNLPLERDAESFLLKSPIAPCSLDKRVILIFHCEFSSERGPRMCRFIRERDRAVNDYPSLYYPEMYILKGGYKEFFPQHPNFCEPQDYRPMNHEAFKDELKTFRLKTRSWAGERSRRELCSRLQDQ

target: S-FLAG-streptavidin-binding peptide (SFB)-tagged PKM2 (human) (UniProt P14618); test: pull-down; SFB-PKM2 pulled down with streptavidin-agarose beads from nuclear lysates/fraction of U87/EGFR cells treated with or without EGF (100 ng/ml) for 4 h; immunoblotting

Row | binding | Molecule
1 | no binding | PP1 (from UniProt P62136 1-330) (enzyme)
2 | no binding | B1
3 | no binding | B2
